Source: the supplement of paper PMC10849652
The list shows a part of the results.

The chains behind the UniProt entries cited, without tags or fusion partners. Where a name states a change or a piece, a line headed by the entry shows the natural chain unless it says otherwise.
UniProt Q9NRW3: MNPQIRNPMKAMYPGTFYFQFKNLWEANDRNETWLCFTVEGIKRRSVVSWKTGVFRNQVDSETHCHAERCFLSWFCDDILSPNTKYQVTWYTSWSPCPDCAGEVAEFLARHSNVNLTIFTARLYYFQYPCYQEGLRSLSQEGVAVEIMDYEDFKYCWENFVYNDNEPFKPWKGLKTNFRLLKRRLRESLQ
UniProt Q12955: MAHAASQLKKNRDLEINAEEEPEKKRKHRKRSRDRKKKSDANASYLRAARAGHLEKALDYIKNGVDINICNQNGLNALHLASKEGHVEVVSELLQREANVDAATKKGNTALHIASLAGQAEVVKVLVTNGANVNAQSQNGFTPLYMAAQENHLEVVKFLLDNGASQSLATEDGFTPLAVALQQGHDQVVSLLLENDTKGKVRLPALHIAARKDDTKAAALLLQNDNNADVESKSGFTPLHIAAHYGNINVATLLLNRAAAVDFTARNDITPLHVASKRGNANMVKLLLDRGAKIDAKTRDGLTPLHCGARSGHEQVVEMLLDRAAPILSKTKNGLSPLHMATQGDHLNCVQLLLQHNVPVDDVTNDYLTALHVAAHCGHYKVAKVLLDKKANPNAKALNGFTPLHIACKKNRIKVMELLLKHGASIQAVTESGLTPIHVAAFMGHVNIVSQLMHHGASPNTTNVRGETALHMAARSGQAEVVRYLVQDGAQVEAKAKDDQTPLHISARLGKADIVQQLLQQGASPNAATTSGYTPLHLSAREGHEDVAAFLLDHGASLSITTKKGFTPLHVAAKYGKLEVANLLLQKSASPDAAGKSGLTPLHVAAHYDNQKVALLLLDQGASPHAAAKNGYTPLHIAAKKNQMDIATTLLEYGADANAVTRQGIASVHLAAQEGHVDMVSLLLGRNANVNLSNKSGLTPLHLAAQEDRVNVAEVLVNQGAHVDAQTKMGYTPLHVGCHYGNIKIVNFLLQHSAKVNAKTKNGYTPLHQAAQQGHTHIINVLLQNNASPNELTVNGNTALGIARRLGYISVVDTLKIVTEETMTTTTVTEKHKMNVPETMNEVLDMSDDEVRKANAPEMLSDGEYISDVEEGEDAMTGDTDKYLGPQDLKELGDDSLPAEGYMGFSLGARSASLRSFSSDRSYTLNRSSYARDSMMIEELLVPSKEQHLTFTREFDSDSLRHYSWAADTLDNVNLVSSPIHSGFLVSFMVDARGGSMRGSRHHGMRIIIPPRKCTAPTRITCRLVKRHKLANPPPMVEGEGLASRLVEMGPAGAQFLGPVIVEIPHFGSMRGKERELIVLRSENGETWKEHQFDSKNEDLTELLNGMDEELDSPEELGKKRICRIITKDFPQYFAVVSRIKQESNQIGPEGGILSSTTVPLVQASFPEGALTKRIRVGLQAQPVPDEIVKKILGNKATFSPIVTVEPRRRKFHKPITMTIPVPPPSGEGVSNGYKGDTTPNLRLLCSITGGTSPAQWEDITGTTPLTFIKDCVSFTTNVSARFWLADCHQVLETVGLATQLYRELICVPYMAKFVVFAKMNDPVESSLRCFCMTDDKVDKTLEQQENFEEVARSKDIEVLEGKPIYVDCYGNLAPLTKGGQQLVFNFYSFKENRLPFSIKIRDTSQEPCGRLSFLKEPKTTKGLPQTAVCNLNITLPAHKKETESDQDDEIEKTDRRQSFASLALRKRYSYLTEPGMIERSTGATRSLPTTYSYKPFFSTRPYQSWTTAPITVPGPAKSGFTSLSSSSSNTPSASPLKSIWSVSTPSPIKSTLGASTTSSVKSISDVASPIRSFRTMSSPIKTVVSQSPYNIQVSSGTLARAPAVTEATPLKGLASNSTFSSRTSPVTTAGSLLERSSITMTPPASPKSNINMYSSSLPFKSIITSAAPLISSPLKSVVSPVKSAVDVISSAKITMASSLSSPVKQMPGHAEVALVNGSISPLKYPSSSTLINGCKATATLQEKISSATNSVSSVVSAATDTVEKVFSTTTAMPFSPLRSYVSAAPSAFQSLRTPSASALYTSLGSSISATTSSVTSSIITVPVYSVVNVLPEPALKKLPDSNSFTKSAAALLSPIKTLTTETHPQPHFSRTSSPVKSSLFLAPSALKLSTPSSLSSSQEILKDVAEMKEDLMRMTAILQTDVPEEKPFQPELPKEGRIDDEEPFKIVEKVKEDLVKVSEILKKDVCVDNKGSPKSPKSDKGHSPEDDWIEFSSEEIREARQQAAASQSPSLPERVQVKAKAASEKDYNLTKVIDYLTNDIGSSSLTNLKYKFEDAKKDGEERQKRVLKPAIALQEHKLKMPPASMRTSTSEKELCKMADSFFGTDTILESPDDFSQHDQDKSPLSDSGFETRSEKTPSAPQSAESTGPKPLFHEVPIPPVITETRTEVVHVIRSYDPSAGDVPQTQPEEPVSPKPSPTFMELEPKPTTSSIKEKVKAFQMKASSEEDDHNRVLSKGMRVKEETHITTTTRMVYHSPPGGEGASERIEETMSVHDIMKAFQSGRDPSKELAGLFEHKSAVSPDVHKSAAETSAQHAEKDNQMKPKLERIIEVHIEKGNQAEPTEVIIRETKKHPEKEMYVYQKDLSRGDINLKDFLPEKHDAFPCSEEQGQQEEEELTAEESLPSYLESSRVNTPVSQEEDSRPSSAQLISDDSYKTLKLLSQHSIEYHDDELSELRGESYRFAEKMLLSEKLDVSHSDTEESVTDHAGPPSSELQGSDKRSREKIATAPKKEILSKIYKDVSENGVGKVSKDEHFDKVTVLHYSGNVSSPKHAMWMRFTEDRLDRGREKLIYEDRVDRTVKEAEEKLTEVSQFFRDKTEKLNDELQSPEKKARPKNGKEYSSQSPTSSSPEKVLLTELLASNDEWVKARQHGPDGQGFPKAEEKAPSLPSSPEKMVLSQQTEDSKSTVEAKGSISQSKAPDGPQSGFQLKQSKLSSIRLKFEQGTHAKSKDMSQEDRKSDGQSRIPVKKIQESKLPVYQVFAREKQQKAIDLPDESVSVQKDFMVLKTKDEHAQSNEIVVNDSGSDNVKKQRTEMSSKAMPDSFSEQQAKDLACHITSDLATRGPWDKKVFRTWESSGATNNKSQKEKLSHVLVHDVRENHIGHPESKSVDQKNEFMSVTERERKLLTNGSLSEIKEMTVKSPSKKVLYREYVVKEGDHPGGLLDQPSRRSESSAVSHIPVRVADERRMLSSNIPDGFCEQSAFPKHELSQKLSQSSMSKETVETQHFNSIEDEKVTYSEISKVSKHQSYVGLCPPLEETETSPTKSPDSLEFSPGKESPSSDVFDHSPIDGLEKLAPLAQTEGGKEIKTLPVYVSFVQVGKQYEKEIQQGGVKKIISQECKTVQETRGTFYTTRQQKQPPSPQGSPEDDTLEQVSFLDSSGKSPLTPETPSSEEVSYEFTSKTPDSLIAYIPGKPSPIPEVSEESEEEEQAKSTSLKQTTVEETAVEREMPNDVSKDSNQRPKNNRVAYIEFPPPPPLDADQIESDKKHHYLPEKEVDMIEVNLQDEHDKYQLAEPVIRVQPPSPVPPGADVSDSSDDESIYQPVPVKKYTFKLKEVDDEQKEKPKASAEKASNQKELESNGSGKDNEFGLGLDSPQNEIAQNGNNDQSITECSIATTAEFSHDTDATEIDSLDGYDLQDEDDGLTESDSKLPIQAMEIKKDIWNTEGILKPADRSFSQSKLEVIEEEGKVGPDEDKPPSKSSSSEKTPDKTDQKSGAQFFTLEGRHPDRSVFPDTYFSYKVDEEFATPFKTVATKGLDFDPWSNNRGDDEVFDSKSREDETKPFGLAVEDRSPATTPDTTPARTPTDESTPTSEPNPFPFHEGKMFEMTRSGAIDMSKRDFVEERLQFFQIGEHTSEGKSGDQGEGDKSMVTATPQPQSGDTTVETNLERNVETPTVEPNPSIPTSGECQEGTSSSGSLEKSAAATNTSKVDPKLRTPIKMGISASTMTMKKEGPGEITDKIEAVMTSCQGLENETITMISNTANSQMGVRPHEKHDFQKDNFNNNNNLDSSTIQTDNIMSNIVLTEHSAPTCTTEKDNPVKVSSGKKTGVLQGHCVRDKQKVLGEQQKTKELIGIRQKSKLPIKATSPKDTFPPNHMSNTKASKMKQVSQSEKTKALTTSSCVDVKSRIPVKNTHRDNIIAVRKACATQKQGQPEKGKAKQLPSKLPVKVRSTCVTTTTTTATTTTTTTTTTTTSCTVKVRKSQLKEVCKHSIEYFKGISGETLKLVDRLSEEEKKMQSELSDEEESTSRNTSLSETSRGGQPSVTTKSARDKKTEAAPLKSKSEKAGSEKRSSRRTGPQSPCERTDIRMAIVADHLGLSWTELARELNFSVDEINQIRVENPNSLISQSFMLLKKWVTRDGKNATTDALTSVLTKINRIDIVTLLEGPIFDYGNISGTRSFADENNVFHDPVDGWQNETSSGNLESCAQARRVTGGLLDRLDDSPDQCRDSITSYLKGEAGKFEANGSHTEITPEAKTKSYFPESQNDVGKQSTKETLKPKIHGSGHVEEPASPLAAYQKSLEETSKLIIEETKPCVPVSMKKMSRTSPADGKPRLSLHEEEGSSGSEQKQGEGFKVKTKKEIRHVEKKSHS
UniProt O15084: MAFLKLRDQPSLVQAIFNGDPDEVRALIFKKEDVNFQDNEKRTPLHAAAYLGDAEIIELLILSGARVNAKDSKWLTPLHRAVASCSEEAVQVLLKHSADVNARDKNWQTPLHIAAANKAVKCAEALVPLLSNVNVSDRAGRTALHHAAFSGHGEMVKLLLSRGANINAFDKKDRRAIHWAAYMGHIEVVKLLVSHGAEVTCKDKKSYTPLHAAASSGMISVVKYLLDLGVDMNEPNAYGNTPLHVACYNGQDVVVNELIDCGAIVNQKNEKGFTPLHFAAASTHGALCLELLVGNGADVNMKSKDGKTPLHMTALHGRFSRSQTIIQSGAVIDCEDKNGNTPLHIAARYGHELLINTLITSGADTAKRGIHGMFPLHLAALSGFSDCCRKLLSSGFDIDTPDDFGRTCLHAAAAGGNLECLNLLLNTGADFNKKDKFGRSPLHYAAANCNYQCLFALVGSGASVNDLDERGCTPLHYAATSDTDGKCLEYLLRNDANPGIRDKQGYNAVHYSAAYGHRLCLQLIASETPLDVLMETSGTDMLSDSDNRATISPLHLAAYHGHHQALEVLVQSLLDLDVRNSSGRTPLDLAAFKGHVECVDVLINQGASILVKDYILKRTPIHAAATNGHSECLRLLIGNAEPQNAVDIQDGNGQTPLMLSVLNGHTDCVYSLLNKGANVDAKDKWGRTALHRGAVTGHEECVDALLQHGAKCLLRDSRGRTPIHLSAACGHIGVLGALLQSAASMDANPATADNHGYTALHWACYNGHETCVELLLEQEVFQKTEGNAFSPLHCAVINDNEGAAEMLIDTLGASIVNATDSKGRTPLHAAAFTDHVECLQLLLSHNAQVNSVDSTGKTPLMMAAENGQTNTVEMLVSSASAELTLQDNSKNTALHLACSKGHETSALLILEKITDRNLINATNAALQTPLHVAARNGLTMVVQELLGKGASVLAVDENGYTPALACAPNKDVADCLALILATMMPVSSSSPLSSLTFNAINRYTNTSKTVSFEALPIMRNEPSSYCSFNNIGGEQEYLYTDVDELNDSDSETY
UniProt Q68EM7: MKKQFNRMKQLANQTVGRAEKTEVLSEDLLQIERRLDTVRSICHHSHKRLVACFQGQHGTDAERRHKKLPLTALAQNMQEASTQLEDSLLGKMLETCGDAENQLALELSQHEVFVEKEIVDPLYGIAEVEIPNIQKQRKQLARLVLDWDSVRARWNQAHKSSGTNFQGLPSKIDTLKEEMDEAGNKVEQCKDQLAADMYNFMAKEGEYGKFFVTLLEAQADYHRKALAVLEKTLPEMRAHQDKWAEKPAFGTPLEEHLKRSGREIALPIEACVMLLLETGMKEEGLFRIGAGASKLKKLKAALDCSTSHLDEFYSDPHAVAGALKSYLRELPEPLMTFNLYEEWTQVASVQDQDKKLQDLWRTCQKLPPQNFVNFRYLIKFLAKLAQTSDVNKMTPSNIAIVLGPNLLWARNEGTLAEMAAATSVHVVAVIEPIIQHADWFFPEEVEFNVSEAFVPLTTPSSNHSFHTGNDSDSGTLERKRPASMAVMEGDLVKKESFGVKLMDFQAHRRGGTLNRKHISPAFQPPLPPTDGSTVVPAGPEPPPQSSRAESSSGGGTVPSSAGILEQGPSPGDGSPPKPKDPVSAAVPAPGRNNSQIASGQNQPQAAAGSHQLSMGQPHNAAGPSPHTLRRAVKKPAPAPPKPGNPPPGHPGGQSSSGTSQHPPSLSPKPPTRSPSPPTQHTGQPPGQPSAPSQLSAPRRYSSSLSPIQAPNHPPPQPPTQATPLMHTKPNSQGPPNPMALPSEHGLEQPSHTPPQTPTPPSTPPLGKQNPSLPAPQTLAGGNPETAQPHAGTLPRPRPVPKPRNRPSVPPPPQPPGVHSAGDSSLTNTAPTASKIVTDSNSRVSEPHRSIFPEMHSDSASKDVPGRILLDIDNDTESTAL

Experiments:
Test in all cases: log2 fold change, soluble protein after heating vs DMSO (PISA); higher = thermal stabilisation; K562 cells, 10 uM, 30 min; active = over 0.2 and 3.5 SD of the protein, either way, in both replicates (recomputed)
[1] = compound: CC1=C(C=C(C=C1)NC(=O)C2=CC(=CC=C2)C(C)(C)C#N)NC3=CC4=C(C=C3)N=CN(C4=O)C
Method in brief: (§1)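 Soluble protein was quantified by TMTpro 16plex LC-MS/MS after channel sums were equalised. It was obtained as the supernatant after 21,000xg for 90 min from pooled aliquots of K562 cells (2×10^6 cells/mL, 10 μM compound, 30 min) heated for 3 min across 48°C-58°C and extracted in PBS with 0.5% NP-40 at 4°C. Thermal stability values are relative to control samples and come from duplicates. They are given as log2 fold changes.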

[2] = compound: CC1=C(C=C(C=C1)NC(=O)C2=CC(=CC=C2)N(C)C)NC(=O)C3=CC=C(C=C3)O
Method in brief: as §1

[3] = compound: CC1=CC=C(C=C1)SC2=C3C=C(SC3=CN=C2)C(=O)N
Method in brief: as §1

[4] = compound: CC1=NC(=CC=C1)C2=C(N=C(N2)C(C)(C)C)C3=CC4=NC=CN=C4C=C3
Method in brief: as §1

Nexturastat A = compound: CCCCN(Cc1ccc(C(=O)NO)cc1)C(=O)Nc1ccccc1 [Nexturastat A]
Method in brief: as §1

vemurafenib = compound: CCCS(=O)(=O)Nc1ccc(F)c(C(=O)c2c[nH]c3ncc(-c4ccc(Cl)cc4)cc23)c1F [vemurafenib]
Method in brief: as §1

[5] = compound: CCCS(=O)(=O)Nc1ccc(F)c(C(=O)c2c[nH]c3ncc(Cl)cc23)c1F
Method in brief: as §1

[6] = compound: CCCc1cc(C)[nH]c(=O)c1CNC(=O)c1cc(-c2ccnc(N3CCN(C)CC3)c2)cc2c1cnn2C(C)C
Method in brief: as §1

givinostat = compound: CCN(CC)Cc1ccc2cc(COC(=O)Nc3ccc(C(=O)NO)cc3)ccc2c1 [givinostat]
Method in brief: as §1

barasertib = compound: CCN(CCCOc1ccc2c(Nc3cc(CC(=O)Nc4cccc(F)c4)[nH]n3)ncnc2c1)CCOP(=O)(O)O [barasertib]
Method in brief: as §1

[7] = compound: CC[C@@H]1C(=O)N(C)c2cnc(Nc3ccc(C(=O)NC4CCN(C)CC4)cc3OC)nc2N1C1CCCC1
Method in brief: as §1

volasertib = compound: CC[C@@H]1C(=O)N(C)c2cnc(Nc3ccc(C(=O)N[C@H]4CC[C@H](N5CCN(CC6CC6)CC5)CC4)cc3OC)nc2N1C(C)C [volasertib]
Method in brief: as §1

[8] = compound: CC[C@H](C)N1C=C(C2=C(C=C(C=C21)C3=CN=C(C=C3)N4CCNCC4)C(=O)NCC5=C(C=C(NC5=O)C)C)C
Method in brief: as §1

epoxomicin = compound: CC[C@H](C)[C@@H](C(=O)N[C@@H]([C@@H](C)O)C(=O)N[C@@H](CC(C)C)C(=O)[C@]1(CO1)C)NC(=O)[C@H]([C@@H](C)CC)N(C)C(=O)C [epoxomicin]
Method in brief: as §1

[9] = compound: CCn1c(C(=O)N(C2CC2)C2CC2)cc2c3c(ncn3C)c(Nc3cc(C)n(C)n3)nc21
Method in brief: as §1

[10] = compound: CCn1cc(-c2ccnc3[nH]c(-c4cccc(CN(C)C)c4)cc23)c(-c2ccc(NC(=O)N(C)C)cc2)n1
Method in brief: as §1

[11] = compound: CN(C)CC(=O)Nc1ccc2[nH]c(=O)c3ccccc3c2c1
Method in brief: as §1

rosiglitazone = compound: CN(CCOC1=CC=C(C=C1)C[C@H]2C(=O)NC(=O)S2)C3=CC=CC=N3 (racemic) [rosiglitazone]
Method in brief: as §1

[12] = compound: CN1C2=C(C3=C1C(=O)N(N=C3)CC4=CC(=CC=C4)N)SC(=C2)S(=O)C
Method in brief: as §1

[13] = compound: CN1CCC(CNc2ccc3ncc(-c4cccc(OC(F)(F)F)c4)n3n2)CC1
Method in brief: as §1

Measured: log2 fold change

ARCN1 (UniProt P48444)
inactive: [1] 0.001 | [2] -0.02 | [3] 0 | [4] 0.001 | Nexturastat A -0.025 | vemurafenib 0.051 | [5] 0.033 | [6] -0.007 | givinostat -0.009 | barasertib 0.022 | [7] -0.018 | volasertib -0.121 | [8] 0.032 | epoxomicin 0.057 | [9] -0.047 | [10] -0.011 | [11] 0.006 | rosiglitazone 0.025 | [12] -0.045 | [13] 0.014

API5 isoform 2 (UniProt Q9BZZ5)
inactive: [1] -0.017 | [2] 0 | [3] -0.102 | [4] 0.003 | Nexturastat A -0.037 | vemurafenib -0.047 | [5] -0.048 | [6] -0.021 | givinostat -0.067 | barasertib -0.017 | [7] -0.073 | volasertib -0.011 | [8] 0.077 | epoxomicin 0.06 | [9] -0.106 | [10] -0.151 | [11] 0.006 | rosiglitazone 0.002 | [12] -0.091 | [13] -0.122

ANKRD49 (UniProt Q8WVL7)
inactive: [1] 0.03 | [2] -0.046 | [3] 0.048 | [4] 0.011 | Nexturastat A -0.212 | vemurafenib 0.071 | [5] 0.079 | [6] 0.014 | givinostat 0.087 | barasertib -0.001 | [7] 0.061 | volasertib 0.033 | [8] 0.102 | epoxomicin 0.001 | [9] -0.026 | [10] -0.086 | [11] 0.032 | rosiglitazone 0.031 | [12] -0.053 | [13] -0.029

APIP (UniProt Q96GX9)
inactive: [1] 0.01 | [2] 0.007 | [3] 0.033 | [4] 0.014 | Nexturastat A -0.044 | vemurafenib 0.01 | [5] -0.004 | [6] -0.021 | givinostat 0.012 | barasertib -0.041 | [7] 0.051 | volasertib 0.065 | [8] -0.04 | epoxomicin -0.036 | [9] 0 | [10] 0.007 | [11] 0.001 | rosiglitazone 0.064 | [12] -0.077 | [13] 0.029

ANAPC7 (UniProt Q9UJX3)
inactive: [1] 0.008 | [2] -0.006 | [3] -0.009 | [4] -0.005 | Nexturastat A 0.058 | vemurafenib -0.002 | [5] 0.016 | [6] 0.019 | givinostat 0.061 | barasertib -0.006 | [7] -0.039 | volasertib -0.105 | [8] 0.041 | epoxomicin 0.025 | [9] 0.001 | [10] -0.049 | [11] 0.009 | rosiglitazone 0.011 | [12] 0.01 | [13] 0.021

APRT (UniProt P07741)
inactive: [1] -0.042 | [2] 0.014 | [3] 0.021 | [4] 0 | Nexturastat A -0.01 | vemurafenib -0.031 | [5] 0.001 | [6] -0.018 | givinostat -0.006 | barasertib 0.011 | [7] 0.043 | volasertib 0.117 | [8] -0.064 | epoxomicin 0.008 | [9] 0.027 | [10] 0.007 | [11] -0.008 | rosiglitazone 0.011 | [12] -0.081 | [13] -0.116

APOBEC3C (UniProt Q9NRW3)
inactive: [1] 0.004 | [2] 0.032 | [3] -0.172 | [4] -0.069 | Nexturastat A 0.292 | vemurafenib -0.057 | [5] 0.013 | [6] -0.008 | givinostat 0.06 | barasertib -0.057 | [7] 0.131 | volasertib 0.175 | [8] 0.021 | epoxomicin -0.198 | [9] -0.049 | [10] 0.077 | [11] -0.091 | rosiglitazone -0.114 | [12] 0.188 | [13] 0.24

ARHGAP12 (UniProt Q8IWW6)
inactive: [1] -0.008 | [2] 0.002 | [3] 0.012 | [4] -0.129 | Nexturastat A 0.301 | vemurafenib -0.045 | [5] 0.005 | [6] 0.011 | givinostat 0.111 | barasertib -0.026 | [7] 0.075 | volasertib -0.201 | [8] 0.098 | epoxomicin -0.043 | [9] -0.088 | [10] -0.073 | [11] -0.034 | rosiglitazone -0.025 | [12] -0.026 | [13] -0.063

ANXA7 (UniProt P20073)
inactive: [1] 0.032 | [2] -0.03 | [3] 0.015 | [4] 0.052 | Nexturastat A -0.041 | vemurafenib 0.049 | [5] 0.046 | [6] -0.054 | givinostat 0.009 | barasertib -0.001 | [7] -0.077 | volasertib -0.097 | [8] 0.017 | epoxomicin 0.042 | [9] -0.003 | [10] -0.049 | [11] 0.031 | rosiglitazone -0.019 | [12] -0.071 | [13] -0.03

ANKRD54 (UniProt Q6NXT1)
inactive: [1] -0.021 | [2] 0.004 | [3] 0.029 | [4] 0.124 | Nexturastat A 0.027 | vemurafenib 0 | [5] 0.03 | [6] -0.022 | givinostat -0.016 | barasertib 0.023 | [7] 0.014 | volasertib -0.181 | [8] 0.09 | epoxomicin 0.019 | [9] 0.021 | [10] -0.109 | [11] 0.149 | rosiglitazone 0.046 | [12] -0.2 | [13] 0

Reprinted from the listing (two entries):
APRT (UniProt P07741)
inactive: [1] -0.042 | [2] 0.014 | [3] 0.021 | [4] 0 | Nexturastat A -0.01 | vemurafenib -0.031 | [5] 0.001 | [6] -0.018 | givinostat -0.006 | barasertib 0.011 | [7] 0.043 | volasertib 0.117 | [8] -0.064 | epoxomicin 0.008 | [9] 0.027 | [10] 0.007 | [11] -0.008 | rosiglitazone 0.011 | [12] -0.081 | [13] -0.116

APOBEC3C (UniProt Q9NRW3)
inactive: [1] 0.004 | [2] 0.032 | [3] -0.172 | [4] -0.069 | Nexturastat A 0.292 | vemurafenib -0.057 | [5] 0.013 | [6] -0.008 | givinostat 0.06 | barasertib -0.057 | [7] 0.131 | volasertib 0.175 | [8] 0.021 | epoxomicin -0.198 | [9] -0.049 | [10] 0.077 | [11] -0.091 | rosiglitazone -0.114 | [12] 0.188 | [13] 0.24

More records.

ANK3 (UniProt Q12955)
inactive: [1] -0.109 | [2] -0.033 | [3] -0.03 | [4] -0.187 | Nexturastat A 0.044 | vemurafenib 0.119 | [5] -0.018 | [6] -0.194 | givinostat -0.018 | barasertib 0.051 | [7] -0.006 | volasertib -0.149 | [8] -0.051 | epoxomicin -0.086 | [9] -0.115 | [10] 0.088 | [11] -0.025 | rosiglitazone -0.069 | [12] 0.238 | [13] -0.139

ANKRD13A (UniProt Q8IZ07)
inactive: [1] 0.023 | [2] 0.051 | [3] -0.01 | [4] -0.159 | Nexturastat A 0.018 | vemurafenib -0.012 | [5] -0.033 | [6] 0.105 | givinostat -0.003 | barasertib 0.014 | [7] 0.082 | volasertib -0.158 | [8] -0.025 | epoxomicin 0.03 | [9] 0.033 | [10] -0.008 | [11] 0.023 | rosiglitazone -0.02 | [12] 0.035 | [13] 0.021

ANKRD28 (UniProt O15084)
inactive: [1] 0.028 | [2] -0.013 | [3] -0.008 | [4] 0.057 | Nexturastat A 0.002 | vemurafenib -0.003 | [5] 0.028 | [6] -0.006 | givinostat -0.028 | barasertib 0.005 | [7] -0.04 | volasertib -0.117 | [8] 0.025 | epoxomicin 0.049 | [9] -0.02 | [10] -0.055 | [11] 0.002 | rosiglitazone 0.007 | [12] -0.019 | [13] -0.118

ANO6 isoform 2 (UniProt Q4KMQ2)
inactive: [1] -0.042 | [2] -0.003 | [3] 0.023 | [4] 0.03 | Nexturastat A -0.063 | vemurafenib -0.028 | [5] 0.023 | [6] -0.056 | givinostat -0.014 | barasertib -0.014 | [7] 0.023 | volasertib -0.056 | [8] -0.02 | epoxomicin 0.08 | [9] 0.015 | [10] -0.051 | [11] -0.023 | rosiglitazone 0.054 | [12] -0.066 | [13] -0.192

ARFGAP3 (UniProt Q9NP61)
inactive: [1] 0.008 | [2] 0.033 | [3] 0.003 | [4] -0.013 | Nexturastat A -0.02 | vemurafenib 0.028 | [5] 0 | [6] -0.014 | givinostat -0.008 | barasertib 0.037 | [7] -0.074 | volasertib -0.026 | [8] 0.055 | epoxomicin 0.04 | [9] -0.021 | [10] 0.004 | [11] 0.01 | rosiglitazone 0.045 | [12] -0.031 | [13] 0.024

ARHGAP17 (UniProt Q68EM7)
inactive: [1] -0.13 | [2] -0.048 | [3] 0.021 | [4] 0.068 | Nexturastat A 0.037 | vemurafenib -0.032 | [5] 0.118 | [6] 0.107 | givinostat 0.153 | barasertib 0.018 | [7] -0.085 | volasertib -0.374 | [8] 0.107 | epoxomicin -0.048 | [9] -0.176 | [10] 0 | [11] 0.055 | rosiglitazone 0.099 | [12] 0.108 | [13] -0.088
